Experimental data published in publication PMC12747546, “Homoharringtonine suppresses acute myeloid leukemia progression by orchestrating EWSR1 phase separation in an m^6A‐YTHDF2‐dependent mechanism” (iMeta, 2025).

Sequences of proteins named here, by UniProt entry; tags and fusion partners are left off.
UniProt Q01844: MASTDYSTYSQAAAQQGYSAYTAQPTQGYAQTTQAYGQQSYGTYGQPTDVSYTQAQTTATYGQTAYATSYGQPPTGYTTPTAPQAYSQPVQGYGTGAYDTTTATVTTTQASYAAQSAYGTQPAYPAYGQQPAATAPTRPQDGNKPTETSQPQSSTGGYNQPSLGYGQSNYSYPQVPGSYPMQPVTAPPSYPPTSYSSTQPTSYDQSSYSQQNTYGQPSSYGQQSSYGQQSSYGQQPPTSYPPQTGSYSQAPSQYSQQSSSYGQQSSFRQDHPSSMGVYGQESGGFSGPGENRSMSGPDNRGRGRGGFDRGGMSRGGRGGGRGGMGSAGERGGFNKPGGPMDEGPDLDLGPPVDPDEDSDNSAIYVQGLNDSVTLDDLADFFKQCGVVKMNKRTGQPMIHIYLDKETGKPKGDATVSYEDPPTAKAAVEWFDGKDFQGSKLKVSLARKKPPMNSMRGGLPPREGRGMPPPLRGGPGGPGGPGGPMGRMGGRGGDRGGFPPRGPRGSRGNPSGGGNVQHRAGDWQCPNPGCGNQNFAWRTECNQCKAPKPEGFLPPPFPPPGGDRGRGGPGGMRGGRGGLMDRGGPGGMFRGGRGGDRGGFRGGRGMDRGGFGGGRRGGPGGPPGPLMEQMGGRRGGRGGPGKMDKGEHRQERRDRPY

Target: HA-tagged full-length EWSR1 (HA-EWSR1) (human) (UniProt Q01844)
Experiment: affinity purification with mass spectrometry; HEK293T cells in SILAC medium transfected with HA-EWSR1 and treated with HHT (40 nM); NP40 lysate on HA-tag magnetic beads, 4°C, 4 h; bound proteins by mass spectrometry

binding: binds
B1: HNRNPM (in HEK293T cells) (protein, UniProt P52272 1-730)
chain: MAAGVEAAAEVAATEIKMEEESGAPGVPSGNGAPGPKGEGERPAQNEKRKEKNIKRGGNRFEPYANPTKRYRAFITNIPFDVKWQSLKDLVKEKVGEVTYVELLMDAEGKSRGCAVVEFKMEESMKKAAEVLNKHSLSGRPLKVKEDPDGEHARRAMQKVMATTGGMGMGPGGPGMITIPPSILNNPNIPNEIIHALQAGRLGSTVFVANLDYKVGWKKLKEVFSMAGVVVRADILEDKDGKSRGIGTVTFEQSIEAVQAISMFNGQLLFDRPMHVKMDERALPKGDFFPPERPQQLPHGLGGIGMGLGPGGQPIDANHLNKGIGMGNIGPAGMGMEGIGFGINKMGGMEGPFGGGMENMGRFGSGMNMGRINEILSNALKRGEIIAKQGGGGGGGSVPGIERMGPGIDRLGGAGMERMGAGLGHGMDRVGSEIERMGLVMDRMGSVERMGSGIERMGPLGLDHMASSIERMGQTMERIGSGVERMGAGMGFGLERMAAPIDRVGQTIERMGSGVERMGPAIERMGLSMERMVPAGMGAGLERMGPVMDRMATGLERMGANNLERMGLERMGANSLERMGLERMGANSLERMGPAMGPALGAGIERMGLAMGGGGGASFDRAIEMERGNFGGSFAGSFGGAGGHAPGVARKACQIFVRNLPFDFTWKMLKDKFNECGHVLYADIKMENGKSKGCGVVKFESPEVAERACRMMNGMKLSGREIDVRIDRNA

These are yes or no findings as the source states them, for the method shown. Binding seen in cells or lysates may run through a third protein. Here binding means that the protein was enriched with, or labelled near, the bait; the list need not be complete.
